# Test results taken from the supplement of paper PMC6411743.
# Amino acid sequences for entries named in this document (tags omitted). A change or cut given only in a name is not applied to a line headed by its entry.
# UniProt O75122: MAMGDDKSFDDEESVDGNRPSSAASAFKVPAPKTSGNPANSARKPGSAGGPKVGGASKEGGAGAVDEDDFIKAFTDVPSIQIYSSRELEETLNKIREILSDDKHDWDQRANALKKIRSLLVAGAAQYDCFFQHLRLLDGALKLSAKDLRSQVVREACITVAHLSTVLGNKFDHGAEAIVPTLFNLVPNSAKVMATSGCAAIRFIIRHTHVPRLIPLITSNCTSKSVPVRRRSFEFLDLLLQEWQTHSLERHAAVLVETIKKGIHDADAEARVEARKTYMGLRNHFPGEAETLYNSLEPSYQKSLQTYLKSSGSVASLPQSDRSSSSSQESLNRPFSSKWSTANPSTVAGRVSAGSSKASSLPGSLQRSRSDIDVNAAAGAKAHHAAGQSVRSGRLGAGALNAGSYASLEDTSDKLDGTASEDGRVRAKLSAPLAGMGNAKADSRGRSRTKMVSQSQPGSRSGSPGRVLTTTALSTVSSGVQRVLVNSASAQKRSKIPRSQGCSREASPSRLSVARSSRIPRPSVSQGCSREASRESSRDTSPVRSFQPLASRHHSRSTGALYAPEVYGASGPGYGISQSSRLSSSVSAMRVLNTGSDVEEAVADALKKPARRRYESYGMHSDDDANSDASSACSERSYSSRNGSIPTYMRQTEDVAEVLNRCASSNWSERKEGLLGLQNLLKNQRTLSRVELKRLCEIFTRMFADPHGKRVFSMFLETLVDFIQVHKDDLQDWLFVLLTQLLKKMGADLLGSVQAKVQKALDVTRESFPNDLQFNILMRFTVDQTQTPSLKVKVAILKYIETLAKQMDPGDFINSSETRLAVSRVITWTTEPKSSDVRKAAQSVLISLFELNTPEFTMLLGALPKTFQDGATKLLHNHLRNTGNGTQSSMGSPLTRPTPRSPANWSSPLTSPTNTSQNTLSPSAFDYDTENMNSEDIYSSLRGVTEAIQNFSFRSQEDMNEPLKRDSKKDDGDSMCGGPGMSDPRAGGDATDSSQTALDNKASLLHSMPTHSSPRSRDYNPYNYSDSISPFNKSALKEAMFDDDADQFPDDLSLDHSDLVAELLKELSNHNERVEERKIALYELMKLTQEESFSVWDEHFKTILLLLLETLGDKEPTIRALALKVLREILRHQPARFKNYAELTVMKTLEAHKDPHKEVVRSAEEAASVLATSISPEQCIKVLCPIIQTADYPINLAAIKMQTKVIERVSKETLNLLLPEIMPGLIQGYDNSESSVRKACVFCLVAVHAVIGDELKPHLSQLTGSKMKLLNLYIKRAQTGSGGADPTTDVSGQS
# UniProt A6NDG6: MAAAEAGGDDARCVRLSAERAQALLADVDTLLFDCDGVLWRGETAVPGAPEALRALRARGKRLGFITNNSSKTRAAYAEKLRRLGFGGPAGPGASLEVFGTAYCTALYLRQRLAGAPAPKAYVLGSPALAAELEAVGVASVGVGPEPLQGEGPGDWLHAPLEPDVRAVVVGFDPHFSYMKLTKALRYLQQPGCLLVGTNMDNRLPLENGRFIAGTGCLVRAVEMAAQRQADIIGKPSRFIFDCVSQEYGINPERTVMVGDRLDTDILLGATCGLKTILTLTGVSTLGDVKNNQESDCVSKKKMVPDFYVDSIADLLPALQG
# UniProt Q8IYB3: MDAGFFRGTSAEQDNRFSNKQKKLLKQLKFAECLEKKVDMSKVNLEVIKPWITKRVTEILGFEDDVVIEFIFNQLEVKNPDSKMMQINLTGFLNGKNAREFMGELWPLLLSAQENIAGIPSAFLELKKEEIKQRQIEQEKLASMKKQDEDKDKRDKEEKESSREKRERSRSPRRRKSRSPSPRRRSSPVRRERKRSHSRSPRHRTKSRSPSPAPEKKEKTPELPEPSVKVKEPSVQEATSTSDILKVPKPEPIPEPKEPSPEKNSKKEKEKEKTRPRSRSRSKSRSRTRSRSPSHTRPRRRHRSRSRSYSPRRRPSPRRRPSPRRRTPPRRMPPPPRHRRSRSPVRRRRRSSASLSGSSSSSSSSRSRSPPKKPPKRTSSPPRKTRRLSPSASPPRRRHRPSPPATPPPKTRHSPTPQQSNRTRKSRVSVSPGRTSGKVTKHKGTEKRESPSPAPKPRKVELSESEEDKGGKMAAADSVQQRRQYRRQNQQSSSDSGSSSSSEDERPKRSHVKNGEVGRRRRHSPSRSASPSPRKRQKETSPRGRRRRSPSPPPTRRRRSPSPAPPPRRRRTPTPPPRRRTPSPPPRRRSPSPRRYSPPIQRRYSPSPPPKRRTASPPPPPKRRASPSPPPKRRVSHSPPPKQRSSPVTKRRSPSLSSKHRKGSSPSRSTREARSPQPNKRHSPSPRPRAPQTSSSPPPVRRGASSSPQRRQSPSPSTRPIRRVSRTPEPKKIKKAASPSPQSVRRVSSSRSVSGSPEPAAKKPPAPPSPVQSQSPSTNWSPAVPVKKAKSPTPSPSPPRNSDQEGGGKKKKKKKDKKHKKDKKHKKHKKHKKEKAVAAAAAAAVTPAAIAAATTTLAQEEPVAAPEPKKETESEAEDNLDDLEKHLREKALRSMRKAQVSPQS
# UniProt P29372, whole entry: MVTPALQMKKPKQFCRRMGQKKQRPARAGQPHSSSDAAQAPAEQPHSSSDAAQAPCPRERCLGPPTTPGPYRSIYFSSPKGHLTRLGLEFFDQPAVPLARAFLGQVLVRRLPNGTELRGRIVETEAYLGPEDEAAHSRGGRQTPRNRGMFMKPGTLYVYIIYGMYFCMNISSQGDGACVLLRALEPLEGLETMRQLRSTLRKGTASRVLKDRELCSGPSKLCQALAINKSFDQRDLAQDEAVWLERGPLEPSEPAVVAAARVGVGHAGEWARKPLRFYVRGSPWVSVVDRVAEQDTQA
# UniProt Q99439: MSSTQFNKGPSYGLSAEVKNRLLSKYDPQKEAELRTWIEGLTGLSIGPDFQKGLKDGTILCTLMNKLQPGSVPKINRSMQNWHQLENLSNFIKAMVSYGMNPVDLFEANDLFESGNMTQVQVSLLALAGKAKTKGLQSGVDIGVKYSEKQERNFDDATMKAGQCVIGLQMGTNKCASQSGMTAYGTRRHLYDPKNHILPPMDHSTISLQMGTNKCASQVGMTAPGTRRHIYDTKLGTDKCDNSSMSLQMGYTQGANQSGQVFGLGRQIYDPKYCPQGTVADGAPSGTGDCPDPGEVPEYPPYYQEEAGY
# UniProt Q9NTJ4: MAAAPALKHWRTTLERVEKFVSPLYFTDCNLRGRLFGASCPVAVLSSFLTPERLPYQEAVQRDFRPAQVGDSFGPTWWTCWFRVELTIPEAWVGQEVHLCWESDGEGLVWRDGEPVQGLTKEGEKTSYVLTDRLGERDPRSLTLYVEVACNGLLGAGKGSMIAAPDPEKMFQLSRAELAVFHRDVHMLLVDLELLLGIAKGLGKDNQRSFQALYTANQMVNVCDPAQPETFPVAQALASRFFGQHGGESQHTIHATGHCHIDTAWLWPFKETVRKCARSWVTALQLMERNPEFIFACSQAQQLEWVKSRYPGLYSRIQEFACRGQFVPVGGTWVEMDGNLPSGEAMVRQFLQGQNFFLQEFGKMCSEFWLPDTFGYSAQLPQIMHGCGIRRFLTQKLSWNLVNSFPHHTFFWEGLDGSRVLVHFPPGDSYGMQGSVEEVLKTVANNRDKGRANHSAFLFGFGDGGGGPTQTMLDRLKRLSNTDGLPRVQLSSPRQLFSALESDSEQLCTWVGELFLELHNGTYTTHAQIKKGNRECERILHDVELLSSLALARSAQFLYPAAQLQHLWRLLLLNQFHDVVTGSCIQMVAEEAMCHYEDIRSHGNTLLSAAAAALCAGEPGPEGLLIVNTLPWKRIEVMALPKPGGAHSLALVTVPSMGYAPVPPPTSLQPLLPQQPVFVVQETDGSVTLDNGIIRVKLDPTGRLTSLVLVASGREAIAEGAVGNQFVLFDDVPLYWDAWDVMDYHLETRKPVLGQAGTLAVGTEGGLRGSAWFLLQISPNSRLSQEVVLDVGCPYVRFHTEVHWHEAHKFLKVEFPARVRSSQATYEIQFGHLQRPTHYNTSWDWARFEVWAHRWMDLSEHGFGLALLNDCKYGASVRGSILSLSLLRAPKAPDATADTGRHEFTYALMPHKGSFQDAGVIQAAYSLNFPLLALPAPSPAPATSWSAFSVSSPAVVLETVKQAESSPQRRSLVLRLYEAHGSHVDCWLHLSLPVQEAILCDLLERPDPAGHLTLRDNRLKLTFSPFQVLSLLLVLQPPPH
# UniProt Q9H6V9: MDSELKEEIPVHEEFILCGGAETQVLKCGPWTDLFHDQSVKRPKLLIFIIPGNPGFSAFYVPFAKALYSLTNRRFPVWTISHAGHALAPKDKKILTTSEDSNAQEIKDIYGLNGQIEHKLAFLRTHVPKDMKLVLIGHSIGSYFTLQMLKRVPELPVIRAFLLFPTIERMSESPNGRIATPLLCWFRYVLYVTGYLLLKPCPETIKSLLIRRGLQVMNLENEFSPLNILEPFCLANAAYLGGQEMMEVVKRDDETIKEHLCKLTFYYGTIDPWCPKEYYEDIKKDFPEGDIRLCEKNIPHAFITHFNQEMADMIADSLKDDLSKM
# UniProt Q8TCN5: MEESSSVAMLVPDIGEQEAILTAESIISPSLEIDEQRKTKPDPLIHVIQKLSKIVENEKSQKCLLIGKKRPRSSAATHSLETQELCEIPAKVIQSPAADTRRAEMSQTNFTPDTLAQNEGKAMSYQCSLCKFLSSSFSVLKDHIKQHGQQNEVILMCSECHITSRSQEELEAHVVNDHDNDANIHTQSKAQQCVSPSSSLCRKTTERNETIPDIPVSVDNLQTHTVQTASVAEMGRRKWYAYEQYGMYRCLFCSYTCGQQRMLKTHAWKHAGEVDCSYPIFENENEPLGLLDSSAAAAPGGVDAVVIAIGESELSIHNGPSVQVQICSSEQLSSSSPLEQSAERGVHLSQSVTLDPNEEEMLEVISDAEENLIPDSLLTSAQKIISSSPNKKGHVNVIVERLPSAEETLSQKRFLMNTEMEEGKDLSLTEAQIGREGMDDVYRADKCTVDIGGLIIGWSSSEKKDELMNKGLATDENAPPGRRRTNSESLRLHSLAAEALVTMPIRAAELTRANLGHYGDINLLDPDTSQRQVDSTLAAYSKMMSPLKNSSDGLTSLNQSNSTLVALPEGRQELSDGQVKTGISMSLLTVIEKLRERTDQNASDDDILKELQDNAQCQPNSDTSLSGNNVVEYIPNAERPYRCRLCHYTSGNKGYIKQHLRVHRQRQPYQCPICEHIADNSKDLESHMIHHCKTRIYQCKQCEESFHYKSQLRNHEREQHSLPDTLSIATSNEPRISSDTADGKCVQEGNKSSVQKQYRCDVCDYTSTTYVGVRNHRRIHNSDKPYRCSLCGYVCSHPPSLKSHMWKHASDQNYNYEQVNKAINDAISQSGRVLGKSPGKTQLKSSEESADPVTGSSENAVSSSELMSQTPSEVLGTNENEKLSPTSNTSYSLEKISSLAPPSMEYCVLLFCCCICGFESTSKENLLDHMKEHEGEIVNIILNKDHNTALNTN
# UniProt Q14141: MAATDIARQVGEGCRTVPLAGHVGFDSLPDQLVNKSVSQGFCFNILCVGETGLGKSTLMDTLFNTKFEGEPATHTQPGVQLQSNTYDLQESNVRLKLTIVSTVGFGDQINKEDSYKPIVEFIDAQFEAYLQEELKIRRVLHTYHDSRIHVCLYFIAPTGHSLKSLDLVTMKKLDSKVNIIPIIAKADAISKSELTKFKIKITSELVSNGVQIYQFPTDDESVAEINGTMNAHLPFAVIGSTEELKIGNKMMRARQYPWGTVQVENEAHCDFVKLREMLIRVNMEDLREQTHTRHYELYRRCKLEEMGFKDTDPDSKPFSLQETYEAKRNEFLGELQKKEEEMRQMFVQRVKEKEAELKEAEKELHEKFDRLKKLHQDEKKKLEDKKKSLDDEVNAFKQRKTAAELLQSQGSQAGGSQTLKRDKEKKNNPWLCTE
# UniProt Q8WVV9: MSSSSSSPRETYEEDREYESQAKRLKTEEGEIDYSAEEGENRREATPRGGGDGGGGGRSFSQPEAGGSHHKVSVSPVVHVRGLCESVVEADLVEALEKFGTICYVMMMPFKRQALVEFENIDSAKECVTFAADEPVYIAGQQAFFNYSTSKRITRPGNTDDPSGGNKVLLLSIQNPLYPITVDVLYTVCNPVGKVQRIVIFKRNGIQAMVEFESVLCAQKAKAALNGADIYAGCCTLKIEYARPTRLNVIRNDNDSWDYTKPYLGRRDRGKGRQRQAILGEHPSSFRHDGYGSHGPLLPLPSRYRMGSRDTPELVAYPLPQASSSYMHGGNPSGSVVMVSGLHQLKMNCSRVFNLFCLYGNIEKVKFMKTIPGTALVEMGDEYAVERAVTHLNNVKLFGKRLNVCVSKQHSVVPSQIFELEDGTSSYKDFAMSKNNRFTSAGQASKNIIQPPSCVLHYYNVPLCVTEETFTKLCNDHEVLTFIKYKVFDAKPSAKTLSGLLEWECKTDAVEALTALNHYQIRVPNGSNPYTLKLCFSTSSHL
# UniProt P41223: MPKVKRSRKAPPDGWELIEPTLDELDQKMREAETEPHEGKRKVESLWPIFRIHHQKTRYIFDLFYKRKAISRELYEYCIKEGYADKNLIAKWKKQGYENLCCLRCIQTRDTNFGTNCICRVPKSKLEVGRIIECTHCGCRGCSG
# ± gives the standard deviation of the averaged measurements. The list shows a part of the results, in another mix than the full data.
# Compound: Nc1ncnc2c1ncn2[C@@H]1O[C@H](COP(=O)(O)OP(=O)(O)NP(=O)(O)O)[C@@H](O)[C@H]1O [adenylyl imidodiphosphate]
# Assay: NP40-soluble protein abundance relative to vehicle (solubility fold change) (ratio); higher = more soluble protein in presence of AMP-PNP
# Procedure, shortened: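 Eight concentrations, 0.1 to 10 mM, were tested on Jurkat crude lysate for 10 min at room temperature and then 3 min at 37 °C, in three independent experiments. The lysate was solubilised with 0.8% NP40 and benzonase, ultracentrifuged, and the supernatant TMT-labelled for LC-MS/MS. Each value is the fold change against the detergent-processed vehicle in its own replicate, from vsn-normalised intensities.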
Target,NP40-soluble protein abundance (concentration: 1mM),NP40-soluble protein abundance (concentration: 2mM),NP40-soluble protein abundance (concentration: 4mM),NP40-soluble protein abundance (concentration: 6mM),NP40-soluble protein abundance (concentration: 8mM),NP40-soluble protein abundance (concentration: 10mM)
E3W994 and related entries (UniProt O75122),1.04 ± 0.046,1.08 ± 0.042,1.05 ± 0.048,1.08 ± 0.096,1.07 ± 0.11,1.14 ± 0.086
C9J0E4 and related entries (UniProt P01040),1 ± 0.013,1.03 ± 0.032,1.018 ± 0.0088,0.997 ± 0.02,1.04 ± 0.096,1.01 ± 0.016
C9J0Q5 and related entries (UniProt Q9Y618),1.03 ± 0.0079,1.05 ± 0.04,1.03 ± 0.035,0.969 ± 0.057,0.951 ± 0.02,1.01 ± 0.052
B2R5W2 and related entries (UniProt P07910),0.981 ± 0.1,1 ± 0.022,0.945 ± 0.14,0.947 ± 0.14,0.927 ± 0.093,0.953 ± 0.13
PGP (UniProt A6NDG6),0.975 ± 0.046,0.9608 ± 0.0072,0.992 ± 0.028,1.01 ± 0.056,1.04 ± 0.012,1.01 ± 0.028
B0QXZ5 and related entries (UniProt O96015),1 ± 0.02,1.01 ± 0.047,0.983 ± 0.018,0.998 ± 0.021,0.996 ± 0.019,0.9826 ± 0.0082
C9J8B8 and related entries (UniProt Q969S8),0.9555 ± 0.00065,0.968 ± 0.044,0.944 ± 0.028,0.975 ± 0.027,0.9371 ± 0.0074,0.961 ± 0.024
B4E2Q0 and related entries (UniProt P98194),0.996 ± 0.07,0.946 ± 0.043,0.995 ± 0.036,0.962 ± 0.03,0.975 ± 0.017,0.953 ± 0.02
A6NMT1 and related entries (UniProt Q9BY41),1 ± 0.011,0.976 ± 0.034,0.9816 ± 0.0018,0.973 ± 0.021,0.984 ± 0.012,0.977 ± 0.024
A9Z1X7 and related entries (UniProt Q8IYB3),1.03 ± 0.034,1.08 ± 0.11,1.06 ± 0.062,1.1 ± 0.052,1.03 ± 0.077,1.1 ± 0.086
A2IDA3 and related entries (UniProt P29372),1.05 ± 0.035,1.04 ± 0.011,1.09 ± 0.036,1.14 ± 0.038,1.14 ± 0.0089,1.21 ± 0.016
B4DDF4 and related entries (UniProt Q99439),1.02 ± 0.024,1.07 ± 0.074,0.999 ± 0.015,1.02 ± 0.012,0.979 ± 0.018,0.998 ± 0.076
B4DH23 and related entries (UniProt Q9NTJ4),0.9663 ± 0.0016,0.95 ± 0.057,0.9488 ± 0.0049,0.9338 ± 0.0091,0.9635 ± 0.0043,0.95107 ± 0.00049
B8ZZC8 and related entries (UniProt Q9NRN9),0.998 ± 0.025,0.981 ± 0.056,1.025 ± 0.0036,0.9881 ± 0.0068,1.02 ± 0.057,0.997 ± 0.067
B4DRG3 and related entries (UniProt Q9H6V9+B5MCE2+B5MDU6+B4DRG3),0.9913 ± 0.0098,0.948 ± 0.046,0.999 ± 0.013,1.026 ± 0.0069,1.05 ± 0.05,0.9907 ± 0.006
B9EGE7 and related entries (UniProt Q8TCN5),0.959 ± 0.039,0.997 ± 0.019,0.956 ± 0.045,0.952 ± 0.03,0.928 ± 0.042,0.928 ± 0.03
B1AK44 and related entries (UniProt Q9UI95),0.982 ± 0.016,0.99 ± 0.015,1.02 ± 0.02,0.996 ± 0.013,0.988 ± 0.011,0.995 ± 0.0082
B1AMS2 and related entries (UniProt Q14141),1.01 ± 0.023,1.04 ± 0.035,0.973 ± 0.049,1 ± 0.022,0.964 ± 0.039,0.974 ± 0.033
C9JKQ7 and related entries (UniProt P22102),1 ± 0.018,0.954 ± 0.024,0.978 ± 0.021,1.01 ± 0.034,1.02 ± 0.037,0.9834 ± 0.0084
D3YTA9 and related entries (UniProt H7BYZ3+F6U1T9+P63098+D3YTA9),1.08 ± 0.015,1.16 ± 0.085,1.118 ± 0.0014,1.07 ± 0.011,1.07 ± 0.017,1.095 ± 0.0046
UniProt A2VDJ0 and related entries,0.97 ± 0.013,1.02 ± 0.024,1.01 ± 0.011,1 ± 0.059,0.997 ± 0.033,0.9811 ± 0.0073
C9IYN3 and related entries (UniProt Q8WVV9+D6W592+C9IYN3),1.01 ± 0.029,0.957 ± 0.064,1 ± 0.018,0.988 ± 0.029,1 ± 0.038,0.986 ± 0.011
C9IZL5 and related entries (UniProt O00189),0.976 ± 0.013,0.931 ± 0.041,0.993 ± 0.027,0.983 ± 0.02,1.03 ± 0.02,1.02 ± 0.043
C9J6P4 and related entries (UniProt Q7Z2W4),1.05 ± 0.04,1.09 ± 0.035,1.11 ± 0.038,1.15 ± 0.028,1.178 ± 0.0077,1.2 ± 0.014
C9JZB0 and related entries (UniProt Q9BT40),0.985 ± 0.024,0.934 ± 0.045,0.9613 ± 0.0062,0.96 ± 0.015,1 ± 0.025,0.974 ± 0.019
B7Z683 and related entries (UniProt Q12979),0.981 ± 0.016,0.956 ± 0.061,0.99 ± 0.013,0.931 ± 0.014,0.974 ± 0.049,0.942 ± 0.045
C9JEJ2 and related entries (UniProt P49585),1.01 ± 0.028,1.02 ± 0.022,1.02 ± 0.015,0.993 ± 0.027,1 ± 0.02,0.996 ± 0.01
ZNF316 (UniProt A6NFI3),1.01 ± 0.046,1.01 ± 0.058,0.975 ± 0.076,0.971 ± 0.051,0.974 ± 0.046,0.98 ± 0.06
B7Z4W5 and related entries (UniProt Q16773+B7Z4W5),0.933 ± 0.079,0.796 ± 0.15,0.978 ± 0.047,0.994 ± 0.2,1.09 ± 0.17,1.03 ± 0.15
C9JNV2 and related entries (UniProt P41223),1.04 ± 0.036,1.06 ± 0.046,1.08 ± 0.016,1.094 ± 0.0079,1.136 ± 0.0067,1.12 ± 0.045

# Fetched one by one from above, 2 records:
Target,NP40-soluble protein abundance (concentration: 1mM),NP40-soluble protein abundance (concentration: 2mM),NP40-soluble protein abundance (concentration: 4mM),NP40-soluble protein abundance (concentration: 6mM),NP40-soluble protein abundance (concentration: 8mM),NP40-soluble protein abundance (concentration: 10mM)
B0QXZ5 and related entries (UniProt O96015),1 ± 0.02,1.01 ± 0.047,0.983 ± 0.018,0.998 ± 0.021,0.996 ± 0.019,0.9826 ± 0.0082
ZNF316 (UniProt A6NFI3),1.01 ± 0.046,1.01 ± 0.058,0.975 ± 0.076,0.971 ± 0.051,0.974 ± 0.046,0.98 ± 0.06
